# Results from one PubChem assay

The results are deposited in PubChem (AID1508623; NCATS, 2021).

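Firefly luciferase light from HEK293 cells carrying a huntingtin (HTT) promoter reporter, read after 24 hours of compound exposure, giving single-concentration activity change. Percent change in reporter signal versus vehicle (0%) down to no light (-100%); more negative values mean stronger inhibition of promoter activity.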

Values are in %. Common to all entries: at 57.5 µM (top of the series). Only part of the assay is listed here, not a random draw.

| compound | activity change (%) |
|---|---|
| `Cc1c(Cl)cccc1NC(=O)c1cc(-c2cccc(Cl)c2)on1` | 8.194 |
| `COC(=O)c1cc2oc3ccccc3c2n1CC(=O)Nc1ccc(C)c(F)c1` | 9.345 |
| `Cc1cc(NC(=O)c2cc(-c3cccc(Cl)c3)on2)n(-c2ccccc2)n1` | -9.933 |
| `COc1ccccc1CN1C(=O)CN(C2CCCCCC2)C(=O)C1c1ccc(F)cc1` (stereo not shown) | -29.3 |
| `COc1ccc(OC)c(-c2cc(C(=O)NC(C)c3ccccc3)no2)c1` (stereo not shown) | -26.07 |
| `COc1ccc(-c2cc(C(=O)Nc3c(Cl)cccc3Cl)no2)cc1OC` | 5.848 |
| `COc1cc2c(-c3ccccc3O)nc3c(c(C)nn3-c3ccccc3)c2cc1OC` | -11.09 |
| `Cc1c(CCC(=O)NCc2ccc(F)cc2)c(=O)oc2cc(O)ccc12` | -20.29 |
| `CC(C)c1ccc(S(=O)(=O)N2CCC(N3CCN(Cc4ccccc4)C(=O)C3=O)CC2)cc1` | -14.07 |
| `CCOc1ccc(CNC(=O)CCc2c(C)nn(-c3ccc(N4CCCCC4)nn3)c2C)cc1` | -44.53 |
| `CCOc1cc(C2C(C(=O)OC)=C(C)NC3=C2C(=O)c2ccccc23)cc(Cl)c1O` (stereo not shown) | -28.93 |
| `COc1ccc(NC(=O)Nc2sc3nc4n(c(=O)c3c2C)CCC(C)CC4)cc1OC` (stereo not shown) | -41.78 |
| `CCOC(=O)c1ccccc1NC(=O)CSc1ncc(CO)n1Cc1ccc(C)cc1` | -5.798 |
| `CNC(=O)c1ccc(Nc2nnc(-c3ccc(C)c(S(=O)(=O)NC(C)(C)C)c3)c3ccccc23)cc1` | -5.968 |
| `Cc1ccc(Cc2nc3ccccc3nc2SCC(=O)N2CCN(c3ccccc3F)CC2)cc1` | -26.47 |
| `CCOCCCN1C(=O)CN(C2CCCCCC2)C(=O)C1c1ccc(OC(C)C)c(OC)c1` (stereo not shown) | -13.01 |
| `COc1ccc(CN2C(=O)N(c3ccc(F)cc3)C(=O)C2CC(=O)Nc2cc(OC)cc(OC)c2)cc1` (stereo not shown) | -32.29 |
| `Cc1ccc(C(C)C)c(OCCSc2nc(-c3cccs3)nc3cc(=O)[nH]n23)c1` | 8.465 |
| `CCN1CCN(Cc2c(O)ccc3oc(C)c(C(=O)Nc4ccc(OC)c(Cl)c4)c23)CC1` | -18.67 |
| `Cc1ccc(-c2c3c(=O)n(C)c(=O)n(C)c3c3n2-c2ccccc2NC3c2ccc(C)cc2O)cc1` (stereo not shown) | -44.83 |
| `Cc1ccc(OCCn2c(-c3ccc(Br)cc3)nc3ccccc3c2=O)cc1C` | 11.07 |
| `CC1CCc2c(sc(NC(=O)c3cc(-c4cccc(Cl)c4)on3)c2C(N)=O)C1` (stereo not shown) | -3.214 |
| `COC(=O)c1cc2oc3ccccc3c2n1CC(=O)Nc1ccc(C)cc1C` | -8.222 |
| `Cc1nn(-c2ccc(N3CCCC3)nn2)c(C)c1CCC(=O)Nc1ccc(F)cc1F` | -24.7 |
| `Cc1ccc(C2Nc3ccccc3-n3c(-c4ccccc4)c4c(=O)n(C)c(=O)n(C)c4c32)o1` (stereo not shown) | -9.408 |
| `CCc1nnc2c3ccccc3nc(Nc3ccc(F)cc3C)n12` | -23.52 |
| `Cc1nn(-c2ccc(N3CCCCC3)nn2)c(C)c1CCC(=O)NCc1ccc(F)cc1` | -27.46 |
| `O=C(Nc1c(Cl)cccc1Cl)c1cc(-c2ccc3c(c2)OCO3)on1` | 48.22 |
| `COC(=O)c1cc2oc3ccccc3c2n1Cc1nc(-c2ccc(OC)cc2)oc1C` | -7.453 |
| `Cc1ccc(C(=O)N2CCN(Cc3cc(=O)n4nc(-c5ccccc5)sc4n3)CC2)cc1` | -13.06 |
| `COc1ccc(CN2COc3ccc4c(-c5ccccc5)cc(=O)oc4c3C2)cc1OC` | -25.32 |
| `COc1ccc(OC)c(-c2cc(C(=O)Nc3cnn(Cc4ccc(Cl)cc4Cl)c3)no2)c1` | -21.22 |
| `CC1CCC(N2CC(=O)N(CCC3=CCCCC3)C(c3ccc(F)cc3)C2=O)CC1` (stereo not shown) | -13.4 |
| `COc1ccc(CNC(=O)CCc2c(C)nn(-c3ccc(N4CCCCC4)nn3)c2C)c(OC)c1` | -7.412 |
| `COc1ccc(N(C(=O)/C=C\C(=O)Nc2ccc(C)cc2)C(C(=O)NCc2ccco2)c2ccc(C)cc2)cc1` (stereo not shown) | -59.67 |
| `CCOC(=O)N1CCC(NC(=O)c2cnn(-c3ccc(C)cc3)c2-n2cccc2)CC1` | 11.85 |
| `COc1ccc(NC(=O)c2cc3c(=O)n(Cc4ccco4)ccc3nc2C)c(OC)c1` | -14.22 |
| `CCc1c(C)c2ccc(O)c(CN3CCN(c4cc(Cl)ccc4C)CC3)c2oc1=O` | -12.45 |
| `CNC(=O)COc1ccc(Nc2nnc(-c3ccc(C)c(S(=O)(=O)NC(C)(C)C)c3)c3ccccc23)cc1` | -41.09 |
| `Fc1ccc(C(NCCc2ccc(Cl)cc2)c2nnc(-c3ccccc3Cl)o2)cc1` (stereo not shown) | -36.11 |
| `Cc1ccc(-c2nnc(Nc3ccc(Br)cc3)c3ccccc23)cc1S(=O)(=O)N1CCCCC1` | -18.47 |
| `COc1cc(OC)cc(C(=O)Nc2ccc3oc(-c4ccc(Cl)cc4)nc3c2)c1` | -12.71 |
| `COC(=O)CN1C(=O)CSc2ccc(S(=O)(=O)Nc3cccc(Br)c3)cc21` | -32.29 |
| `Cc1ccc(NC(=O)CSc2nc(-c3cccs3)nc3cc(=O)[nH]n23)cc1` | -19.29 |
| `CC1Cc2cc(S(=O)(=O)CCC(=O)NCc3ccccc3Cl)ccc2N1C(=O)C1CC1` (stereo not shown) | -17.34 |
| `Cc1ccc2oc(-c3ccc(Cl)c(NC(=O)c4ccc(OC(C)C)cc4)c3)nc2c1` | 0.8536 |
| `CCCCNC(=O)c1cnc2sc(N3CCCCC3)nn2c1=O` | -9.783 |
| `COc1ccc(C(CC(=O)Nc2cc(Cl)c(OC)cc2OC)N2Cc3ccccc3C2=O)cc1` (stereo not shown) | -35.45 |

5 of the entries, repeated:

| compound | activity change (%) |
|---|---|
| `COC(=O)c1cc2oc3ccccc3c2n1CC(=O)Nc1ccc(C)c(F)c1` | 9.345 |
| `CC1Cc2cc(S(=O)(=O)CCC(=O)NCc3ccccc3Cl)ccc2N1C(=O)C1CC1` (stereo not shown) | -17.34 |
| `COc1cc(OC)cc(C(=O)Nc2ccc3oc(-c4ccc(Cl)cc4)nc3c2)c1` | -12.71 |
| `COc1ccc(CN2COc3ccc4c(-c5ccccc5)cc(=O)oc4c3C2)cc1OC` | -25.32 |
| `CCOCCCN1C(=O)CN(C2CCCCCC2)C(=O)C1c1ccc(OC(C)C)c(OC)c1` (stereo not shown) | -13.01 |